The target of assay [1] is T1, starch synthase I (rice, japonica (endogenous in developing seeds)) (UniProt Q0DEC8).
T1 sequence: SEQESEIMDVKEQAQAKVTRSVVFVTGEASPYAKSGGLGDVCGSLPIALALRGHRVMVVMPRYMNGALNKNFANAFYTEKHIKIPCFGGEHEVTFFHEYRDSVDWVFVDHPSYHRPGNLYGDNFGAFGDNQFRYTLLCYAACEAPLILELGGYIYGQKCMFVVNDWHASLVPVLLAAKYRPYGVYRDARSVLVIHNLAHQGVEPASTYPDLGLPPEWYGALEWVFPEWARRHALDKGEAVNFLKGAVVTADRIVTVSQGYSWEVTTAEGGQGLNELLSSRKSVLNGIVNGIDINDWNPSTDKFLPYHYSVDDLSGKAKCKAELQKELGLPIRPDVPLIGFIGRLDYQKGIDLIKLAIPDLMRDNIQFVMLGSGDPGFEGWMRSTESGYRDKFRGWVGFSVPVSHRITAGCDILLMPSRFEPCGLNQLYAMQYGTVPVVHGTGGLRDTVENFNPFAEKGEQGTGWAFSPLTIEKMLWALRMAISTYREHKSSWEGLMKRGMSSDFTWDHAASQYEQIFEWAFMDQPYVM
The assay is described as follows: co-IP; soluble proteins from developing rice seeds (wild types Nip, Kin, Akt; mutant lines ss1, EM10 and #1411) extracted in 10 mM Hepes-KOH pH 7.5, 100 mM NaCl, protease inhibitor; incubated with isozyme-specific antibodies and protein A sepharose; extensive washing; captured proteins detected by western blotting; control with pre-immune sera.

Assay [2] has as its target T2, starch synthase IIa (rice, japonica (endogenous in developing seeds)) (UniProt Q0DDE3).
T2 sequence: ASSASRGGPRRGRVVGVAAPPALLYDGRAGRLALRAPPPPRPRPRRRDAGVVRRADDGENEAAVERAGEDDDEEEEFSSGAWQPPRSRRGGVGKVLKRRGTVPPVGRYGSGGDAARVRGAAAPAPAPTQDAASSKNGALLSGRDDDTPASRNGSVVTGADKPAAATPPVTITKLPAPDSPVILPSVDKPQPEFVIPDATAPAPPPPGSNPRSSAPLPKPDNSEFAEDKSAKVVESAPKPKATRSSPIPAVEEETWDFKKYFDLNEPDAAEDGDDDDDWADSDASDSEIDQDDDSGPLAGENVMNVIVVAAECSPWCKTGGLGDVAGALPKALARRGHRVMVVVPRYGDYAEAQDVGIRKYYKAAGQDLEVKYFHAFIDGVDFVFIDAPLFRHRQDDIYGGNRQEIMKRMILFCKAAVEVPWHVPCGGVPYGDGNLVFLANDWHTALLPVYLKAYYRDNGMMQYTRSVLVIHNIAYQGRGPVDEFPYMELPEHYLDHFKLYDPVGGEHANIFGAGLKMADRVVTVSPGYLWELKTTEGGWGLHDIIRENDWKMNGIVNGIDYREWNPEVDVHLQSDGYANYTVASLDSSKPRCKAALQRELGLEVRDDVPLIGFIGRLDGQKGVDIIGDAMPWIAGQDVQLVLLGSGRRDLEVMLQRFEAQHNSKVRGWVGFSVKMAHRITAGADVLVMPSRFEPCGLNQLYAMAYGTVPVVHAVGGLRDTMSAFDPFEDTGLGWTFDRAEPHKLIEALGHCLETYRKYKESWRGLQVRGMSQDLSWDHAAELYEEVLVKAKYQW
The description is as above.

These are yes or no findings as the source states them, for the method shown. In cells and extracts the contact can be indirect. Some binding calls cover weakened binding; strength is not graded here.

B1: starch synthase IIa (enzyme, UniProt Q0DDE3 17-810)
chain: T2 sequence
Consider B1, for which the binding entry in assay [1] was “binds”.

B2: starch branching enzyme I (enzyme, UniProt Q01401 65-820)
chain: TMVTVVEEVDHLPIYDLDPKLEEFKDHFNYRIKRYLDQKCLIEKHEGGLEEFSKGYLKFGINTVDGATIYREWAPAAQEAQLIGEFNNWNGAKHKMEKDKFGIWSIKISHVNGKPAIPHNSKVKFRFRHGGGAWVDRIPAWIRYATFDASKFGAPYDGVHWDPPACERYVFKHPRPPKPDAPRIYEAHVGMSGEEPEVSTYREFADNVLPRIRANNYNTVQLMAIMEHSYYASFGYHVTNFFAVSSRSGTPEDLKYLVDKAHSLGLRVLMDVVHSHASNNVTDGLNGYDVGQNTHESYFHTGDRGYHKLWDSRLFNYANWEVLRFLLSNLRYWMDEFMFDGFRFDGVTSMLYHHHGINKGFTGNYKEYFSLDTDVDAIVYMMLANHLMHKLLPEATIVAEDVSGMPVLCRPVDEGGVGFDFRLAMAIPDRWIDYLKNKEDRKWSMSEIVQTLTNRRYTEKCIAYAESHDQSIVGDKTIAFLLMDKEMYTGMSDLQPASPTINRGIALQKMIHFITMALGGDGYLNFMGNEFGHPEWIDFPREGNNWSYDKCRRQWSLVDTDHLRYKYMNAFDQAMNALEEEFSFLSSSKQIVSDMNEKDKVIVFERGDLVFVFNFHPNKTYKGYKVGCDLPGKYRVALDSDALVFGGHGRVGHDVDHFTSPEGMPGVPETNFNNRPNSFKVLSPPRTCVAYYRVDEDREELRRGGAVASGKIVTEYIDVEATSGETISGGWKGSEKDDCGKKGMKFVFRSSDEDCK
B2: the binding result in assay [1] and in assay [2] was “binds” in each case.

The record behind these values is article PMC6292963.
